The test in a line: qHTS Assay for Modulators of Lamin A Splicing. Conditions: HeLa LMNA splicing GFP/RFP minigene ratio, 48 h. The essentials: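 S3 HeLa cells stably expressing lamin A-EGFP splicing minigene plus DsRed2, 600 cells/well, 48 h compound exposure at 37C. Laser-scanning cytometry; analysed as GFP (500-530 nm)/RFP (575-640 nm) total intensity ratio; 0.5% DMSO vehicle.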
On the technique in general: Quantitative high-throughput screening tests each substance at several concentrations.

The mark [1] stands for this setting: measured here: RFP viability control channel.
[2] abbreviates: measured here: GFP splicing reporter channel.

The other results are listed elsewhere or left out. The main result of the screen is listed elsewhere. These columns were measured beside it and carry no call. The list favours compounds with an active or inconclusive main result. Words in brackets tell the shape of the fitted curve; partial curves, single points and poor fits give uncertain potencies.

A word on the AC50: it is the concentration giving half of the maximal activity seen.

With `CCCCC(=O)/C=C/n1c(=S)oc2ccccc21`, the AC50 under setting [1] is 35.5 µM [rising, single point].

Take `NNc1nnc(-c2ccccc2)c(-c2ccccc2)n1`: the AC50 under setting [1] was 35.5 µM [rising, single point].

As to `C=C(C)COc1ccc(-c2n[nH]c(C)c2-c2ccc(Br)cc2)c(O)c1`, the half-maximal activity concentration (AC50) under setting [2] was 10 µM [falling, partial curve] and the AC50 under setting [1] was 8.91 µM [falling, partial curve].

On to `CC(C)(C)N(Cc1ccccc1)C(=O)COC(=O)CCc1c[nH]c2ccccc12`, for which the AC50 under setting [1] was 35.5 µM [rising, single point].

As to `CCCn1c(C)cc(C(=O)COC(=O)c2cc(S(=O)(=O)NCC(C)C)c(Cl)cc2Cl)c1C`, the AC50 under setting [1] is 31.6 µM [rising, single point].

For the compound `N#CC1=C(SCC(N)=O)NC2=C(C(=O)c3ccccc32)C1c1ccc(Cl)cc1` (stereo unspecified), the AC50 reads like this: under setting [2], 22.4 µM [falling, single point]; under setting [1], 35.5 µM [falling, single point].

With `Cc1cc(C)c(C#N)c(Oc2ccc(O)cc2)n1`, the AC50 under setting [1] was 10 µM [rising, partial curve, poor fit].

For the compound `COc1ccc(Cl)cc1NC(=O)CN(C(=O)c1ccco1)C1CCCCC1`, the AC50 was 8.91 µM [rising, partial curve] under setting [2] and 10 µM [rising, single point] under setting [1].

As for `CCCCOc1ccc(C(=O)CCN2CCOCC2)cc1`, the AC50 is, setting by setting: under setting [2], 5.62 µM [falling, single point]; under setting [1], 5.62 µM [falling, single point].

`COc1nnc(-c2ccc(N3CCOCC3)c(NC(=O)c3ccc(C)cc3)c2)c2ccccc12`: the AC50 under setting [1] is 20 µM [falling, single point].

For `CCN1C(=O)N[C@@H](c2ccco2)C(C(=O)OC)=C1C`, the AC50 under setting [1] is 0.00631 µM [falling, full curve, poor fit].

`COC(=O)Cc1c(O)ccn(Cc2ccc3c(c2)OCO3)c1=O`: the AC50 under setting [2] is 0.0316 µM [rising, full curve, poor fit].

With `Cc1c(C(=O)N2c3ccccc3Sc3ccccc32)cccc1[N+](=O)[O-]`, the AC50 by setting is: under setting [2], 1.26 µM [rising, full curve, poor fit]; under setting [1], 17.8 µM [rising, partial curve, poor fit].

Turning to `CCc1cc2c(C)cc(=O)oc2cc1OC(=O)C1CCCN1C(=O)OC(C)(C)C` (stereo unspecified), the AC50 under setting [2] is 14.1 µM [falling, partial curve, poor fit].

Take `CS(=O)(=O)N(CC(=O)N1CCN(c2ccccc2)CC1)Cc1ccc(Cl)cc1`: the concentration at half-maximal activity (AC50) under setting [1] is 31.6 µM [rising, single point].

Turning to `O=C(Nc1ccccc1)N1CCN(c2cccc(C(F)(F)F)c2)CC1`, under setting [1], the AC50 is 35.5 µM [rising, single point].

Source of the values: PubChem BioAssay AID1487 (National Center for Advancing Translational Sciences (NCATS), 2009).
